# At least one compound was matched to its structure with a doubt left.
# System: H4 neuroglioblastoma cells stably transfected to overexpress amyloid precursor protein (APP)
# Assay: Aβ1-42 secreted into medium by H4 cells overexpressing APP, ELISA
# Format: cell-based
# Settings: for Aβ secretion / formation, calcium channel blocker alone: 1 μM, Opti-MEM serum free, 16 hours
# Method: H4 neuroglioblastoma cells stably transfected with a construct overexpressing amyloid precursor protein (APP) secret Aβ1-42 into the culture medium. […] The Aβ levels in the culture medium were measured using ELISAs (Invitrogen).
# We then tested if other calcium channel blockers can inhibit Aβ 1-42 generation in H4 neuroglioma cultures. Known calcium channel blockers such as Amilodpine, Dilitiazem, Felodipine, Isradipine, Nicardipine, and Nimodipine were used in this experiment.
SMILES,"Aβ formation, calcium channel blocker combined with T3/T4 (1 μM with T3/T4, 16 hours)","Aβ secretion / formation, calcium channel blocker alone"
CCOC(=O)C1=C(COCCN)NC(C)=C(C(=O)OC)C1c1ccccc1Cl (stereo not drawn) [Amlodipine],significant decrease,–
COC(=O)C1=C(C)NC(C)=C(C(=O)OCCN(C)Cc2ccccc2)C1c1cccc([N+](=O)[O-])c1 (stereo not drawn) [Nicardipine],–,trend (p<0.10) toward a significant decrease
COCCOC(=O)C1=C(C)NC(C)=C(C(=O)OC(C)C)C1c1cccc([N+](=O)[O-])c1 (stereo not drawn) [Nimodipine],–,significant (p<0.05) decrease
